According to paper PMC3784504:
These are yes or no findings as the source states them, for the method shown. A result given as binding can be weak or reduced; the word gives no strength. Sequences can lack the tags named with a protein. For part of these data: Binding seen in cells or lysates may run through a third protein.

How the values were obtained:
[1] = target: T1, histone chaperone NAP1 (Drosophila (endogenous in embryos and S2 cells)) (UniProt Q9W1G7); assay: co-IP; IPs of NAP1 and SA from pooled high molecular weight S-300 fractions 12-14 (about 1.5 MDa) of embryo nuclear extract; immunoblot
T1 sequence: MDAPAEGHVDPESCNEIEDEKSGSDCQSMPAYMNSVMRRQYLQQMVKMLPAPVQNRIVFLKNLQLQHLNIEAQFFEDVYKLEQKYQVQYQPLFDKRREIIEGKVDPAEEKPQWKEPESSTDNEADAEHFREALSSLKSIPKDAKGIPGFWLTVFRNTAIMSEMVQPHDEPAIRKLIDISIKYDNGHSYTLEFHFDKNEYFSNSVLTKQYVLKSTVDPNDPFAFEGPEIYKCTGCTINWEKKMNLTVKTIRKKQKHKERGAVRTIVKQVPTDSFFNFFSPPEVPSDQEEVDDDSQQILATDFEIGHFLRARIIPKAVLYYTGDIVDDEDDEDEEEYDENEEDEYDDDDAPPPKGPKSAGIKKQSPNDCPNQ

[2] = target: T1, histone chaperone NAP1 (Drosophila (endogenous in embryos and S2 cells)); assay: SEC; Sephacryl S-300 of the POROS-heparin 0.4 M KCl fraction of embryo nuclear extract, HEMG/100 pH 7.6; fractions immunoblotted
[3] = target: T1, histone chaperone NAP1 (Drosophila (endogenous in embryos and S2 cells)); assay: co-IP; IP of SA, NAP1 or PP2A from Drosophila embryo nuclear extract; washes with 600 mM KCl, 0.1% NP40; immunoblot; mock IP with pre-immune serum
[4] = target: T1, histone chaperone NAP1 (Drosophila (endogenous in embryos and S2 cells)); assay: co-IP; IPs of NAP1 and SA from pooled lower molecular weight S-300 fractions 27-29 (about 300 kDa) of embryo nuclear extract; immunoblot

Measured: binding

cohesin subunit RAD21 (Drosophila (endogenous in embryos))
binds: [1] | [2] | [3]

cohesin subunit stromalin (SA)
binds: [1] | [4] | [2]
